Some of these results come from one statement about several compounds together.
System: EnGen Lba Cas12a (Cpf1)
Assay: Experiment of cleavage activity of Cas12a (trans-cleavage of fluorescent reporter molecule)
Format: biochemical
Conditions: concentration changed between 0 to 12 mM; FIGS. 4A to 4E
Procedure: Thereafter, in a 96-well plate (137101, Thermo Fisher Scientific), binding buffer, various additives, a reporter molecule, and water were added, the total volume was adjusted to 80 μL, and the fluorescence intensity was measured every 2 min at 37° C. for 1 to 2 hours by using a fluorescent plate reader Synergy MX (BioTec). Regarding the measurement wavelength, for HiLyte488, an excitation wavelength of 485±20 nm and a fluorescence wavelength of 528±20 nm were used. For the IDT reporter, an excitation wavelength of 535±20 nm and a fluorescence wavelength of 595±20 nm were used. For a reporter marked with Cy5 or Alexa Fluor 647, an excitation wavelength of 620±20 nm and a fluorescence wavelength of 680±20 nm were used.
FIGS. 1A and 1B illustrate a change over time in the ratio of the fluorescence intensity of the IDT reporter to the fluorescence intensity of an internal standard dye Hilyte488.

CCNCCN [N-ethylethylenediamine]
addition concentration at which an effect of facilitating the reaction was observed: ≥ 2.0 mM

Reference: patent US20220170081A1, “METHOD FOR DETECTING TARGET NUCLEIC ACID AND KIT” (CANON KABUSHIKI KAISHA, priority 2020, published 2022)
